Test results from PubChem BioAssay AID540276 (National Center for Advancing Translational Sciences (NCATS), 2011).
Where “and” joins values, the source holds several entries; their conditions need not be identical. Equal entries are not always repeated. Hit rate of the full screen: of about 300,000 compounds, about 5,400 (1.8%) were called active. Inconclusive means that the source gave no clear call. Such entries were picked first, then a sample of the others. The call rests on the fitted dose curve; tested in HEK293 cells. A potency beside an inconclusive call is a rough fit, not a confirmed value.

Test: qHTS for inhibitors of binding or entry into cells for Marburg Virus
Conditions: Marburg virus pseudotyped entry inhibition, cell reporter; series mostly up to 37.8 µM
Potency means the concentration at half of the fitted maximal effect.

SMILES	Potency
COc1ccc(C(=O)NC2CC2)cc1OC1CCN(Cc2cc(C)c(C)cc2C)CC1	inactive
N#Cc1c(-c2ccco2)cc(C2CC2)nc1N	inactive
CC(=O)Nc1ccc(NC(=O)C(C)OC(=O)C2CCCC2)cc1 (stereo unspecified)	inconclusive: 2.24 µM [activator, full curve, poor fit]
CN1c2ccc(Cl)cc2C(=O)NC1C1CC=CCC1 (stereo unspecified)	inconclusive: 35.5 µM [inhibitor, single point]
COc1ccc(C(=O)Nc2nc3ccccc3s2)cc1OC	inconclusive: 0.562 µM [activator, full curve, poor fit]
Cc1cccc(Nc2nc(N)c([N+](=O)[O-])c(N3CCN(C)CC3)n2)c1	inconclusive: 15.8 µM [inhibitor, single point]
Nc1nc(CSc2nnnn2-c2ccccc2)nc(N2CCCc3ccccc32)n1	inconclusive: 4.47 µM [inhibitor, full curve, poor fit]
CCN1C(=O)C2(C(C(=O)c3cc4ccccc4o3)=C(O)C(=O)N2CCCN(C)C)c2ccccc21 (stereo unspecified)	inactive
CC(OC(=O)c1ccco1)C(=O)Nc1nc(-c2ccccc2)cs1 (stereo unspecified)	active: 11.2 µM
Cc1ccc(NC(=O)c2cc(-c3ccco3)on2)cc1C	inactive
CCCN(Cc1cccs1)C(=O)Nc1ccc(Br)c(C)c1	inactive
O=C(O)Cc1cn(Cc2ccc(F)cc2)c2ccccc12	inconclusive: 35.5 µM [inhibitor, single point]
O=C(c1ccccc1Sc1ccc([N+](=O)[O-])cc1)N1CCCCC1	inconclusive: 8.91 µM [inhibitor, single point]
Cc1ccc(SCC(=O)NCCSCc2ccccc2)cc1	inconclusive: 22.4 µM [inhibitor, partial curve, poor fit]
CC(=O)C1=C(C)OC(N)=C(C#N)C1c1cccc2ccccc12 (stereo unspecified)	inactive
O=C(C1CC(=O)N(C2CCCC2)C1)N1CCN(c2cccc(Cl)c2)CC1 (stereo unspecified)	inconclusive: 1.26 µM [inhibitor, single point]
Cc1ccc(S(=O)(=O)N2CCC(C(=O)OCC(=O)N3CCC(C)CC3)CC2)cc1C	inactive
O=C(CC(=O)Nc1ccc(Cl)c(Cl)c1)N/N=C/c1ccc(O)cc1	inactive
O=C1c2ccccc2-c2nc3ccccc3n21	inactive and inconclusive: 7.94 µM [activator, partial curve]
COc1ccc(-c2ccc(SCC(=O)NCc3ccc4c(c3)OCO4)nn2)cc1OC	inconclusive: 17.8 µM [inhibitor, single point]
CCOC(=O)Nc1ccc(OC(=O)Oc2ccc(NC(=O)OCC)cc2)cc1	inconclusive: 0.891 µM [activator, full curve, poor fit]

Quoted from the listing:
Potency, CN1c2ccc(Cl)cc2C(=O)NC1C1CC=CCC1 (stereo unspecified) is entered as inconclusive: 35.5 µM [inhibitor, single point]
Potency, CCN1C(=O)C2(C(C(=O)c3cc4ccccc4o3)=C(O)C(=O)N2CCCN(C)C)c2ccccc21 (stereo unspecified) is entered as inactive
